Results are given in words; binding and its absence hold for the method and conditions named. Binding seen in cells or lysates may run through a third protein. Some entries that bind do so weakly or less than the wild type.
How the values were obtained:
Myc-NCOA4 [1] = biological target: Myc-NCOA4 (UniProt Q13772); assay: co-IP; HEK293T co-transfected with Flag-TAX1BP1, Myc-NCOA4 and increasing amounts of HA-ORM2 plasmid; 8 uM FINO2 plus 10 uM chloroquine or DMSO; co-IP with Myc beads; IB with Flag, HA, Myc and GAPDH antibodies
Flag-TAX1BP1 = Flag-TAX1BP1 (UniProt Q86VP1); assay: co-IP; HEK293T co-transfected with Flag-TAX1BP1 and HA-ORM2; 8 uM FINO2 or vehicle for 3 h; co-IP with Flag beads; HA-ORM2 measured
Myc-NCOA4 [2] = biological target: Myc-NCOA4 (UniProt Q13772); assay: co-IP; HEK293T co-transfected with Flag-ORM2 and Myc-NCOA4; 8 uM FINO2 or vehicle for 3 h; co-IP with Myc beads; Flag-ORM2 analysed

Chains of the proteins cited; added tags and fusions are not shown. Residues count along the entry.
UniProt Q13772: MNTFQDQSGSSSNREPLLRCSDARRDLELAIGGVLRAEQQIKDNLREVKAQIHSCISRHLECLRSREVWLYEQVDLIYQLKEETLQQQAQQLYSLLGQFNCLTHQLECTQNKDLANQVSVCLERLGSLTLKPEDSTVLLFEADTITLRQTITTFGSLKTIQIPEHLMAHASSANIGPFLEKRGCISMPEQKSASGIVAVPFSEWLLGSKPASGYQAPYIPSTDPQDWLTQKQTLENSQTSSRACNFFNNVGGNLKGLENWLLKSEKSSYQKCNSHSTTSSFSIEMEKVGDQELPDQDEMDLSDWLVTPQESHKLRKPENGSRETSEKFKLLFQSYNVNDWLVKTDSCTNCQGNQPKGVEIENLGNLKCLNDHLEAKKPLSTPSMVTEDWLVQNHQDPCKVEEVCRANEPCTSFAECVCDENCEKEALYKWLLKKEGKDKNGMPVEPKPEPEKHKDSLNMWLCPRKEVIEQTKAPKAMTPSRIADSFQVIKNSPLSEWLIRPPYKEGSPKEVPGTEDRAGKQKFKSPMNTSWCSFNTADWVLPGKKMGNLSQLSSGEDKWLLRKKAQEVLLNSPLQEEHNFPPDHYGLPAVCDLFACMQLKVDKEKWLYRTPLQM
UniProt Q86VP1: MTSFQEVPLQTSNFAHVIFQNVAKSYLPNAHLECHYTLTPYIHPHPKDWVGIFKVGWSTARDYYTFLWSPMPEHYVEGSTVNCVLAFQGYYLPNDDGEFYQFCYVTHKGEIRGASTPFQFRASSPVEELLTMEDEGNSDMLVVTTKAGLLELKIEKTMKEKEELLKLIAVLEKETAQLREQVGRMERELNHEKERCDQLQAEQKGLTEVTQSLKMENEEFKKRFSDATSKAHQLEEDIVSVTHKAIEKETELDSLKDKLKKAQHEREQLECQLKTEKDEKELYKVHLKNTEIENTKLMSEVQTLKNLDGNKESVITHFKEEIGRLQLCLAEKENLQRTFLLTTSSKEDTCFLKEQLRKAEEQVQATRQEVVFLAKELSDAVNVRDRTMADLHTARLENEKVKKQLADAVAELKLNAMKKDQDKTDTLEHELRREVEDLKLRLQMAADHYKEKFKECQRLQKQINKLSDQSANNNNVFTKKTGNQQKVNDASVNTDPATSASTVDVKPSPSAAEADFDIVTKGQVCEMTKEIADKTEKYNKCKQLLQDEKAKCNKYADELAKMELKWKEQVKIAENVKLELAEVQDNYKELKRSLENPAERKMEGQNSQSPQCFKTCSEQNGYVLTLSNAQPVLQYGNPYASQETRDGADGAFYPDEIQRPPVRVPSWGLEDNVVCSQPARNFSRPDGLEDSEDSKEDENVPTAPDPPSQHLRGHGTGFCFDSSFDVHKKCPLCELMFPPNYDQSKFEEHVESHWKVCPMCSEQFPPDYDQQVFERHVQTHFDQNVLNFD
UniProt P19652, residues 19-201: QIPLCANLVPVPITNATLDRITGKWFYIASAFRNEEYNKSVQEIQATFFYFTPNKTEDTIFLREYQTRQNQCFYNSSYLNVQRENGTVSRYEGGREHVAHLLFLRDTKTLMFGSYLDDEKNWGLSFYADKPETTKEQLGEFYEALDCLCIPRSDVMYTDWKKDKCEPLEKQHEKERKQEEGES

binding (Myc-NCOA4 [1]) | binding (Flag-TAX1BP1) | binding (Myc-NCOA4 [2]) | Substance
binds | no binding |  | HA-ORM2 (Orosomucoid 2) (from UniProt P19652 19-201)
 |  | binds | Flag-ORM2 (Orosomucoid 2) (from UniProt P19652 19-201)
